Results are given in words; binding and its absence hold for the method and conditions named.
Target: Human MutLα (MLH1-PMS2 heterodimer) (human) (UniProt P40692+P54278)
Experiment: co-IP; purified proteins; MutSα- or MutLα-containing agarose beads (antibodies against MSH2 or MLH1), DNA2 in solution; for MutSα 30-μl mixtures with MutSα (3.4 pmol) and DNA2 (3.4 pmol); eluted fractions analyzed by immunoblotting; both purified

Sequences of proteins named here, by UniProt entry; tags and fusion partners are left off. A change or cut given only in a name is not applied to a line headed by its entry.
UniProt P40692: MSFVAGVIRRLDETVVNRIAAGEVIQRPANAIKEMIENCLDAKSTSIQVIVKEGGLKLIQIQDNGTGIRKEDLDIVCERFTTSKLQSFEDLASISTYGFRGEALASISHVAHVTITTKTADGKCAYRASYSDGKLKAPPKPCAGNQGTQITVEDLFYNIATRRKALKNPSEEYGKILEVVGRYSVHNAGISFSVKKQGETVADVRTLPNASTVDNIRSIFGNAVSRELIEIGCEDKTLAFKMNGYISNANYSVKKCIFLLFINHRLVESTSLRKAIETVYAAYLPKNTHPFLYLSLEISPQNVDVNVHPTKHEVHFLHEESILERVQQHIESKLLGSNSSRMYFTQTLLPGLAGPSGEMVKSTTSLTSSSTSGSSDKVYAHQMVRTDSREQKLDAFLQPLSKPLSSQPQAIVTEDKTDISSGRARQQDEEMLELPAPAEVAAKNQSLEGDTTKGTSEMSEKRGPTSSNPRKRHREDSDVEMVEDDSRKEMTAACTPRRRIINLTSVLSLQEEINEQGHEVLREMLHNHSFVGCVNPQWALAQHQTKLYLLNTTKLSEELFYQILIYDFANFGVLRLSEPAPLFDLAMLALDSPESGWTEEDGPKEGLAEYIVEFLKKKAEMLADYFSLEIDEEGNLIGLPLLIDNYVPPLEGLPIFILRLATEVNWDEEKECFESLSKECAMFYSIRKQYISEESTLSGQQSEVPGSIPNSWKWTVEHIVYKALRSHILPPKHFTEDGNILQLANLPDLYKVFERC
UniProt P54278: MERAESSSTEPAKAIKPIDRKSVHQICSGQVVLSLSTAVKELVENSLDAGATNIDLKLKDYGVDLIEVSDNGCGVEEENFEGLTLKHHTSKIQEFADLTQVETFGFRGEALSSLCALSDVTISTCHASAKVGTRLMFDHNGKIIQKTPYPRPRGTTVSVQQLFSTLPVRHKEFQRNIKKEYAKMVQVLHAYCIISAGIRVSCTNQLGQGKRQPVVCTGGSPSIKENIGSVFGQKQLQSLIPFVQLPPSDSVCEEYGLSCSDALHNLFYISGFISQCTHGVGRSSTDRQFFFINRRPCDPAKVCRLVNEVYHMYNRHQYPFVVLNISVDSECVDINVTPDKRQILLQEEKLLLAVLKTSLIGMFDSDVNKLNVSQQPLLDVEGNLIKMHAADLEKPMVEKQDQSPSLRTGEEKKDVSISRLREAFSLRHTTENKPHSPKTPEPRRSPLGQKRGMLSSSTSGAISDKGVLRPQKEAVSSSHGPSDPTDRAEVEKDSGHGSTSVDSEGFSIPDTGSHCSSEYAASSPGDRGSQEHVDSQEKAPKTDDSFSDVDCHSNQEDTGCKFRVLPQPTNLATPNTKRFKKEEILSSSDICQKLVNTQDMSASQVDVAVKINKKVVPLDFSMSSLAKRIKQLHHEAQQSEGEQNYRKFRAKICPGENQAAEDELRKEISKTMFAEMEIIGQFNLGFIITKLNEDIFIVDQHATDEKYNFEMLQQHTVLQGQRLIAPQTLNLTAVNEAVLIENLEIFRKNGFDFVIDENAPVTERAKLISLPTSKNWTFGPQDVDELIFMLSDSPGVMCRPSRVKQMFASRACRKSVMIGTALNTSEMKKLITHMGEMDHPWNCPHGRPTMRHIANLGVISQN

B1: Human DNA2 nuclease/helicase (enzyme, UniProt P51530 1-1060)
chain: MEQLNELELLMEKSFWEEAELPAELFQKKVVASFPRTVLSTGMDNRYLVLAVNTVQNKEGNCEKRLVITASQSLENKELCILRNDWCSVPVEPGDIIHLEGDCTSDTWIIDKDFGYLILYPDMLISGTSIASSIRCMRRAVLSETFRSSDPATRQMLIGTVLHEVFQKAINNSFAPEKLQELAFQTIQEIRHLKEMYRLNLSQDEIKQEVEDYLPSFCKWAGDFMHKNTSTDFPQMQLSLPSDNSKDNSTCNIEVVKPMDIEESIWSPRFGLKGKIDVTVGVKIHRGYKTKYKIMPLELKTGKESNSIEHRSQVVLYTLLSQERRADPEAGLLLYLKTGQMYPVPANHLDKRELLKLRNQMAFSLFHRISKSATRQKTQLASLPQIIEEEKTCKYCSQIGNCALYSRAVEQQMDCSSVPIVMLPKIEEETQHLKQTHLEYFSLWCLMLTLESQSKDNKKNHQNIWLMPASEMEKSGSCIGNLIRMEHVKIVCDGQYLHNFQCKHGAIPVTNLMAGDRVIVSGEERSLFALSRGYVKEINMTTVTCLLDRNLSVLPESTLFRLDQEEKNCDIDTPLGNLSKLMENTFVSKKLRDLIIDFREPQFISYLSSVLPHDAKDTVACILKGLNKPQRQAMKKVLLSKDYTLIVGMPGTGKTTTICTLVRILYACGFSVLLTSYTHSAVDNILLKLAKFKIGFLRLGQIQKVHPAIQQFTEQEICRSKSIKSLALLEELYNSQLIVATTCMGINHPIFSRKIFDFCIVDEASQISQPICLGPLFFSRRFVLVGDHQQLPPLVLNREARALGMSESLFKRLEQNKSAVVQLTVQYRMNSKIMSLSNKLTYEGKLECGSDKVANAVINLRHFKDVKLELEFYADYSDNPWLMGVFEPNNPVCFLNTDKVPAPEQVEKGGVSNVTEAKLIVFLTSIFVKAGCSPSDIGIIAPYRQQLKIINDLLARSIGMVEVNTVDKYQGRDKSIVLVSFVRSNKDGTVGELLKDWRRLNVAITRAKHKLILLGCVPSLNCYPPLEKLLNHLNSEKLIIDLPSREHESLCHILGDFQRE
How did the binding turn out when B1 was run?
The binding was “no binding”.

Reference: publication PMC9036127
